Tested on: acute myocardial infarction
Experiment: Acute myocardial infarction in anesthetized dogs, oral (intragastric) administration
Assay type: in vivo
Procedure: Drugs were administered intragastrically in equal volume at unequal concentration. […] After weighing, animals were anesthetized with 3% pentobarbital sodium iv at the dose of 30 mg/kg. Tracheal intubation was performed and anesthesia respirator (SC-M5, manufactured by Shanghai Medical Instrument Factory) was connected for mechanical ventilation (18 20 per min with tidal volume of 350 550 ml) after thoracotomy. Needle electrodes were punctured into four limbs and under chest skin for monitoring standard limb lead and V3 and ECG. Thoracotomy was performed at the third intercostal space of left sternal border and the fourth rib was removed for full exposure of heart. The pericardium was cut open to make a pericardium hammock. The coronary artery was dissociated from between the second and third branches of left anterior descending coronary artery, underneath which pass through silk threads for two-step ligation. On surface of heart were placed 30-point epicardial leads, to which four limbs were connected through needle-electrodes, which were in turn connected to Powerlab/8s (AD Instruments) with a multichannel switcher to record epicardial electrogram. Animal models of acute myocardial ischemia were prepared with the method of two-step ligation. […] NBT). While other part of myocardium was dyed to blue-black, the Infarct myocardium would not be colorated, which was then cut off and weighted. The results of experiment were shown in x±s and statistics were checked with t-test of non-matched pair. When p<0.05, it was judged that the differences were statistically significant.

Substance: 3,4′,5-trihydroxy-stilbene-3-β-D-glucoside [TSG]
- Weight of heart (TSG 5 mg/kg oral): 79.7 ± 6.68 g
- weight of left heart (TSG 5 mg/kg oral): 55.1 ± 4.15 g
- Weight of heart (TSG 10 mg/kg oral): 68.8 ± 6.05 g
- weight of left heart (TSG 10 mg/kg oral): 48.2 ± 4.84 g
- Weight of heart (TSG 20 mg/kg oral): 80.6 ± 13.3 g
- weight of left heart (TSG 20 mg/kg oral): 56.2 ± 9.58 g

Reference: US20080176810A1, “Use of 3, 4', 5-Trihydroxy-Stilbene-3-Beta-D-glucoside in Prepartion of Medicines For Treating and/or Preventing Ischemic Heart Disease” (SHENZHEN NEPTUNUS PHARMACEUTICAL CO., LTD., priority 2004, published 2008)
